Results reported in the supplement of paper PMC10849652.
The other results are listed elsewhere or left out.

The chains behind the UniProt entries cited, without tags or fusion partners. Where a name states a change or a piece, a line headed by the entry shows the natural chain unless it says otherwise.
UniProt P56377: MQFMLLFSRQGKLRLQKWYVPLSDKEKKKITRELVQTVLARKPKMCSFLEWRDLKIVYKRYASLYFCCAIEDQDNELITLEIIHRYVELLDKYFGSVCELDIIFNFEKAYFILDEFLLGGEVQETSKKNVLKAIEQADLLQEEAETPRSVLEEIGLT
UniProt Q9UM13, whole entry, looked up: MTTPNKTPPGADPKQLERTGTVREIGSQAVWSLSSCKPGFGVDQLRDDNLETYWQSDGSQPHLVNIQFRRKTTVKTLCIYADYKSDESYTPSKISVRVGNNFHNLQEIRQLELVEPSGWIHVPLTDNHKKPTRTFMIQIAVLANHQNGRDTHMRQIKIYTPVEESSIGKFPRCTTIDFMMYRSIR
UniProt Q6ZTN6: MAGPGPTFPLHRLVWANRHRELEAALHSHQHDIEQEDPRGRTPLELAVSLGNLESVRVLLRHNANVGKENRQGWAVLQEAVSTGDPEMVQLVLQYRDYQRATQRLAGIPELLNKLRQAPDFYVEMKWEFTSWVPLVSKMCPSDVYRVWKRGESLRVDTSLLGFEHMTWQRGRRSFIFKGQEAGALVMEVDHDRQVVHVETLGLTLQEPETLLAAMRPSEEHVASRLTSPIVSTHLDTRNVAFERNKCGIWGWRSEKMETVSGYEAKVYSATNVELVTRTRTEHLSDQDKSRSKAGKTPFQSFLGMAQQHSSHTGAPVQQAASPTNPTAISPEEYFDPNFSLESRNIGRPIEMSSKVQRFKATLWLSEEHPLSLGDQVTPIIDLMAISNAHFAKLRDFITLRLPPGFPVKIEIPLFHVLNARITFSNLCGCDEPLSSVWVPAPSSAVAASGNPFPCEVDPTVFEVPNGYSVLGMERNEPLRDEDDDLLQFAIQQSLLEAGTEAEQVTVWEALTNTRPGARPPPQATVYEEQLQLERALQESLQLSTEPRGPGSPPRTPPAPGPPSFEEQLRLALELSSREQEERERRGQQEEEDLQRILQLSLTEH
UniProt Q6NS38: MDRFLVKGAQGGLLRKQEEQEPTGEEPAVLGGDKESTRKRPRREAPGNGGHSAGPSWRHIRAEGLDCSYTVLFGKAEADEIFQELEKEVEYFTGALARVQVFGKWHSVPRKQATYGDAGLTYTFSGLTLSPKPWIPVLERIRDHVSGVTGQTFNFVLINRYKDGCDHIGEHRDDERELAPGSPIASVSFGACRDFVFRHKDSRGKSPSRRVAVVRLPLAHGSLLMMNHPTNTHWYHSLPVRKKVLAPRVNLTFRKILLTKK
UniProt Q5VTE6: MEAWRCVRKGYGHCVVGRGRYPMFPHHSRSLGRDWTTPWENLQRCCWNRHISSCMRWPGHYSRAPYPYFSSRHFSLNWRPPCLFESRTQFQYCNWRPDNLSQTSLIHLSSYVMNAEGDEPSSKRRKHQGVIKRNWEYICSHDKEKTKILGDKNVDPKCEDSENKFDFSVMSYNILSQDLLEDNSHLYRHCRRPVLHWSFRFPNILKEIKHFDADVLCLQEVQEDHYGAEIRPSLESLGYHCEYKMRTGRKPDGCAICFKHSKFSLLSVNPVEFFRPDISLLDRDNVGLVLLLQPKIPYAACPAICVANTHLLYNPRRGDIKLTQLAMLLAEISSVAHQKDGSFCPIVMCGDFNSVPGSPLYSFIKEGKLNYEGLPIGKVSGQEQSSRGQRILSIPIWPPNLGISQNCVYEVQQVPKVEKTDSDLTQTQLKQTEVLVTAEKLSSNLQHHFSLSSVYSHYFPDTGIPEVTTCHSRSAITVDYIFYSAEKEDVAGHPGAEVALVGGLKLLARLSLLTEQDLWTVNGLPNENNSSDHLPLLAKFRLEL
UniProt P07355, whole entry, looked up: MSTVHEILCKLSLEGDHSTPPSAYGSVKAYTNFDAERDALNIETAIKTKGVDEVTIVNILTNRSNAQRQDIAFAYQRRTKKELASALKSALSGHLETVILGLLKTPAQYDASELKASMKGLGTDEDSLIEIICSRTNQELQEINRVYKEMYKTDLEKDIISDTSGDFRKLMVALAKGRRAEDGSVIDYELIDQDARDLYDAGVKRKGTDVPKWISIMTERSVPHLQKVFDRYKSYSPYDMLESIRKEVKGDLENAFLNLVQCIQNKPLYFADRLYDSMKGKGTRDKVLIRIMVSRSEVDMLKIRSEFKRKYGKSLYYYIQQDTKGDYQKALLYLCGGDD
UniProt P39687: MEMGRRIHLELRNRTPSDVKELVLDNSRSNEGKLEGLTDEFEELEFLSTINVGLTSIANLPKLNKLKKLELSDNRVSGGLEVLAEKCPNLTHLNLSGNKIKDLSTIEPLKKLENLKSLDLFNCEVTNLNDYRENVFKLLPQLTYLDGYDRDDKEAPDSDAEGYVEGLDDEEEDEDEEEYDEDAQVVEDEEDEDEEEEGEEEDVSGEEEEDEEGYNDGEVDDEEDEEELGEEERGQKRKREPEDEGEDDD
UniProt P58335, whole entry, looked up: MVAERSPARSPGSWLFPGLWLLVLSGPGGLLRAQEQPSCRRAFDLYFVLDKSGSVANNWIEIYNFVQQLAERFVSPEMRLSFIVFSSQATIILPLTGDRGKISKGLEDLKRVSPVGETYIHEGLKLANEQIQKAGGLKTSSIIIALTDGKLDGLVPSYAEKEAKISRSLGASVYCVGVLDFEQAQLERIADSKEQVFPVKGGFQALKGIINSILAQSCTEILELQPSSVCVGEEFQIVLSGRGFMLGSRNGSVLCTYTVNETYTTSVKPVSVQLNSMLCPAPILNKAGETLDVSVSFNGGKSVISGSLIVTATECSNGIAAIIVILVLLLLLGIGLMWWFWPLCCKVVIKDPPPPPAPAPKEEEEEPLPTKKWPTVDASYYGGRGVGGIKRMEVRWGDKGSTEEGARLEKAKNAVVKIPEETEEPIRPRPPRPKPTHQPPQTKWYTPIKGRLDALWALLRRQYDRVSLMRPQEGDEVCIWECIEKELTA
UniProt Q13367: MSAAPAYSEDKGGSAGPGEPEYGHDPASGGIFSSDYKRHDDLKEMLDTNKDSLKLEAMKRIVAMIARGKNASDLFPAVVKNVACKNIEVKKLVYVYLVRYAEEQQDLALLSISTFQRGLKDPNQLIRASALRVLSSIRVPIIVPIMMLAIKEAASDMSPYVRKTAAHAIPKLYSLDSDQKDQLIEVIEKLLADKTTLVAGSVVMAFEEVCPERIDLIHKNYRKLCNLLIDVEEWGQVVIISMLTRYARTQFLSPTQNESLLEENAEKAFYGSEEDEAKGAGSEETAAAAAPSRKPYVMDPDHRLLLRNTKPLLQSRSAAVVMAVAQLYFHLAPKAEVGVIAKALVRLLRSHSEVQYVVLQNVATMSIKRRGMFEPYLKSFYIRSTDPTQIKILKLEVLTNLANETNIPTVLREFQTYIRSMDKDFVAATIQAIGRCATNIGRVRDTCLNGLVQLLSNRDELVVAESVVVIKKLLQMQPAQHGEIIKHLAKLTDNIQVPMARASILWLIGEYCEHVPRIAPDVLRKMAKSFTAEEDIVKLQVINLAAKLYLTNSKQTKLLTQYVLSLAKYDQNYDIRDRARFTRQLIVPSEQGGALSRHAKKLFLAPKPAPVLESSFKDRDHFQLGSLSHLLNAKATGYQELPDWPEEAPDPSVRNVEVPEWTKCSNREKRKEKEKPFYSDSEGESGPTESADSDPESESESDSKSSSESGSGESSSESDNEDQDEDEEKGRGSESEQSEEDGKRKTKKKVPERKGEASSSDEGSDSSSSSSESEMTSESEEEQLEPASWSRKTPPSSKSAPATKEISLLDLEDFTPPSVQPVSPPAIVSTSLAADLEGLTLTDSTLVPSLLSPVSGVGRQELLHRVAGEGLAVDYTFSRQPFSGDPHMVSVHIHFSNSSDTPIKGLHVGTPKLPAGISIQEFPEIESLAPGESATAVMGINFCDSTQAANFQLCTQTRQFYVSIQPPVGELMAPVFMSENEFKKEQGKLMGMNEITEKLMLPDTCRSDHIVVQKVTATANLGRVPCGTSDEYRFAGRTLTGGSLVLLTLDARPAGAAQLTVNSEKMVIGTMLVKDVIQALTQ
UniProt Q6NXT1: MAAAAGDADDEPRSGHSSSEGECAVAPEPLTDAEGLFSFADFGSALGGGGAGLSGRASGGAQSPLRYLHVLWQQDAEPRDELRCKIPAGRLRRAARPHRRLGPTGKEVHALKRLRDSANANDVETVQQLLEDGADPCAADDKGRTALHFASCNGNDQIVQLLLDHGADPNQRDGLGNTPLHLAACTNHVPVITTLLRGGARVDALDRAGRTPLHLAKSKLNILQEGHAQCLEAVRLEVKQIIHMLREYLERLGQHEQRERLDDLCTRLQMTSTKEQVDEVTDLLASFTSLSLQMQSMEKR
UniProt Q9H553: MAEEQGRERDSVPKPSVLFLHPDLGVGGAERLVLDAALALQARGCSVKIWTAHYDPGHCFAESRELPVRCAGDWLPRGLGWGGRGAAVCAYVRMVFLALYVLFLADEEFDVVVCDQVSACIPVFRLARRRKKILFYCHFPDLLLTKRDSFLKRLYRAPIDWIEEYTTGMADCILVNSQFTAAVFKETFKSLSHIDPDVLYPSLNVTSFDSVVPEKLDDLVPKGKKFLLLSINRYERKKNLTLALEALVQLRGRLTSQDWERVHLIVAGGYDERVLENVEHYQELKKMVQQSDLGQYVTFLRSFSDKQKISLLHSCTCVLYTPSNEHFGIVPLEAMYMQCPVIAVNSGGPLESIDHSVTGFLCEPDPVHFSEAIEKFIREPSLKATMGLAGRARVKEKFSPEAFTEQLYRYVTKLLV
UniProt P30038: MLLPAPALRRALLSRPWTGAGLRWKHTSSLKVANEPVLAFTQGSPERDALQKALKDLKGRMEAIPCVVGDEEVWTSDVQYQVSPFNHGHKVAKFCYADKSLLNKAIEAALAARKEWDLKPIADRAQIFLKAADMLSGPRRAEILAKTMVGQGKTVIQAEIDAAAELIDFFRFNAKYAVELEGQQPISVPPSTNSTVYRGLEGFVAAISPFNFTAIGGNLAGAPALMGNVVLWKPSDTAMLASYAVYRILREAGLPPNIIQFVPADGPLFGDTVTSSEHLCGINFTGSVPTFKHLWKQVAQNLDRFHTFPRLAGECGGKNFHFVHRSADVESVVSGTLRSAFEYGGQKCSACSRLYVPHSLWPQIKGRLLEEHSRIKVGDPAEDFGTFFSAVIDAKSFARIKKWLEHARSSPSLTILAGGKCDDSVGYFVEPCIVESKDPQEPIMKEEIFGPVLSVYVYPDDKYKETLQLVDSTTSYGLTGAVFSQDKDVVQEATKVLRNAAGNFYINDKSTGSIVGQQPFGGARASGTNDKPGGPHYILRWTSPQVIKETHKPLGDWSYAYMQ
UniProt P20073: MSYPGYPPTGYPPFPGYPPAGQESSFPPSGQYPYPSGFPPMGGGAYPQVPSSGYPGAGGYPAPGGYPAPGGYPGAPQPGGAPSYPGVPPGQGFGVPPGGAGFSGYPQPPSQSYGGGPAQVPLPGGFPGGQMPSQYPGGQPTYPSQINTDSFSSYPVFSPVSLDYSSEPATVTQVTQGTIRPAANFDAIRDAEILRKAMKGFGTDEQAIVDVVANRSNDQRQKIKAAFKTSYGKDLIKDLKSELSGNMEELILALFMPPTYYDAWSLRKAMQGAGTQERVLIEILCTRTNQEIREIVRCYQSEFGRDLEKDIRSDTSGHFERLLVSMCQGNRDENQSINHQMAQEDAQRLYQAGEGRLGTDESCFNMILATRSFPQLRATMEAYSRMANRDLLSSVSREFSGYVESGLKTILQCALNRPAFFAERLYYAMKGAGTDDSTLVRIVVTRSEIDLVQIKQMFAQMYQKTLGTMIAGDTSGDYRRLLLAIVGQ
UniProt Q01432: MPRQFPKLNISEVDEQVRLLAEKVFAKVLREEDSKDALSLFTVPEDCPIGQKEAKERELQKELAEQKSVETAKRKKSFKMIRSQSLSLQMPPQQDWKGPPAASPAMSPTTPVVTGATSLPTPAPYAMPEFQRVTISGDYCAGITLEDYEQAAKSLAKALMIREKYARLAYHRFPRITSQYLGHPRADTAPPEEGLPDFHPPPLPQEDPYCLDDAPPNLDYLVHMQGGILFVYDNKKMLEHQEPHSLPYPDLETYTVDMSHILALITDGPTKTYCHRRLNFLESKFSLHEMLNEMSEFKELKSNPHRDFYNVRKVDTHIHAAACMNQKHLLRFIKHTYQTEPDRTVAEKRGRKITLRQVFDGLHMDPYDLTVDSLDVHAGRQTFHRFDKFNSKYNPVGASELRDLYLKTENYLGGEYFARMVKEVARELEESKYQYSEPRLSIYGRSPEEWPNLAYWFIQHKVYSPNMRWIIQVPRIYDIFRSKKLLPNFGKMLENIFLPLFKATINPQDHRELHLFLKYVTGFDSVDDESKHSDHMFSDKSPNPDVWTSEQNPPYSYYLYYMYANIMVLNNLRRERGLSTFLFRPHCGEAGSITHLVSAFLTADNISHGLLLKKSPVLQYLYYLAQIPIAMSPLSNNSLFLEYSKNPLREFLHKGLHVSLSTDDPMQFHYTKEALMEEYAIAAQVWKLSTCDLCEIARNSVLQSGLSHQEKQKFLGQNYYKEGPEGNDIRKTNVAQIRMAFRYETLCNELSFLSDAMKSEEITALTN

The targets below were run with CC1=CC=C(C=C1)SC2=C3C=C(SC3=CN=C2)C(=O)N (assay: log2 fold change, soluble protein after heating vs DMSO (PISA); higher = thermal stabilisation; K562 lysate, 10 uM; active = over 0.2 and 3.5 SD of the protein, either way, in both replicates (recomputed)).
Method in brief: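 Log-two fold change in thermal stability relative to solvent controls is reported from duplicates. For each sample, crude K562 extract from dounce-homogenised pellets in PBS pH 7.4 with 1 mM MgCl2, at 1 mg/mL protein, was treated with 10 μM compound for 30 min. Aliquots heated for 3 min across 48°C-58°C were pooled, brought to 0.5% NP-40 at 4°C and cleared at 21,000xg for 90 min. The supernatant was quantified by TMTpro 16plex LC-MS/MS with channel sums equalised.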
With AP1S2 isoform 2 (UniProt P56377) the log2 fold change was inactive: -0.017.
In the case of ANAPC10 (UniProt Q9UM13), the log2 fold change is reported as inactive: -0.025.
With ANKRD13D isoform 3 (UniProt Q6ZTN6) the log2 fold change was inactive: 0.061.
For AP3D1 isoform 5 (UniProt O14617), the log2 fold change was inactive: 0.006.
In the case of ALKBH2 (UniProt Q6NS38), the log2 fold change is reported as inactive: -0.013.
In the case of AP3S1 (UniProt Q92572), the log2 fold change is reported as inactive: -0.017.
With ALDH6A1 (UniProt Q02252) the log2 fold change was inactive: -0.02.
For ANGEL2 (UniProt Q5VTE6), the log2 fold change was inactive: -0.053.
With ALS2 (UniProt Q96Q42) the log2 fold change was inactive: -0.008.
In the case of AKT2 (UniProt P31751), the log2 fold change is reported as inactive: -0.044.
For ANXA2 isoform 2 (UniProt P07355), the log2 fold change was inactive: 0.013.
In the case of ANP32A (UniProt P39687), the log2 fold change is reported as inactive: -0.018.
With ANTXR2 isoform 4 (UniProt P58335) the log2 fold change was inactive: -0.024.
With AP3B2 isoform 4 (UniProt Q13367) the log2 fold change was inactive: 0.002.
In the case of ALDH18A1 (UniProt P54886), the log2 fold change is reported as inactive: -0.018.
For ANKRD54 (UniProt Q6NXT1), the log2 fold change was inactive: -0.023.
With ALG2 (UniProt Q9H553) the log2 fold change was inactive: -0.021.
In the case of ALDH4A1 (UniProt P30038), the log2 fold change is reported as inactive: 0.
In the case of ALDH1A1 (UniProt P00352), the log2 fold change is reported as inactive: 0.011.
For ANKRD52 (UniProt Q8NB46), the log2 fold change was active: -0.363.
In the case of ANXA7 (UniProt P20073), the log2 fold change is reported as inactive: 0.017.
For AMPD3 isoform 4 (UniProt Q01432), the log2 fold change was inactive: -0.005.
